Assay results as given in PubChem BioAssay AID2685 (National Center for Advancing Translational Sciences (NCATS), 2010).
Some of the results follow. The main result of the screen is listed elsewhere. These columns were measured beside it and carry no call. Most of these compounds were active or inconclusive in the main read-out, so they are no random draw. Potencies come from curve fits of mixed quality, noted in brackets.

Assay: qHTS Assay for Lipid Storage Modulators in Drosophila S3 Cells;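 on cell number change: cells counted by Cell Tracker Red CMTPX staining in the red channel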
Conditions: BODIPY lipid droplet fluorescence, 18-24 h; for cell number change: measured here: cell count max response, cells fed with added oleic acid
Procedure, shortened: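 Laser-scanning cytometry quantifies lipid droplet accumulation (500–530 nm total intensity; droplet/cell object ratio) in oleic acid-fed (400 uM added) Drosophila S3 cells treated with a concentration series. 20 uM Triacsin C defined 100% inhibition.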

[1] = measured here: cell number channel AC50, cells fed with added oleic acid
[2] = measured here: lipid fluorescence (Fed channel) AC50, cells fed with added oleic acid

SMILES	AC50 [1]	cell number change [%]	AC50 [2]
Cc1c(C(=O)NCCN2CCOCC2)oc2ccccc12	3.66 µM [rising, single point]	–	–
O=C(CSc1nnc(-c2cccnc2)n1-c1ccccc1)Nc1ccc2c(c1)OCO2	–	4.18	0.92 µM [rising, full curve, poor fit]
Cc1cccc(C(=O)N[C@H](C(=O)Nc2ncc(C)s2)C(C)C)c1	0.517 µM [rising, partial curve]	–	1.64 µM [rising, single point]
Clc1cc(Cl)cc(C2=NCCC(c3ccccc3)O2)c1 (stereo not drawn)	18.4 µM [rising, single point]	35.8	16.4 µM [rising, partial curve]
NS(=O)(=O)c1ccc(N2C(=O)C3CC=CCC3C2=O)cc1 (stereo not drawn)	–	-27	0.13 µM [falling, full curve, poor fit]
O=C(NCc1cn(-c2ccccc2)nc1-c1ccccc1)c1ccc([N+](=O)[O-])cc1	–	-28.2	20.6 µM [falling, single point]
Cc1[nH]n(-c2ccccc2)c(=O)c1/C=N/N(c1ccccc1)c1ccccc1	–	-24.3	29.1 µM [falling, single point]
Cc1cc(C(=O)OCC(=O)c2cccs2)c2ccccc2n1	–	2.24	0.146 µM [falling, full curve, poor fit]
Cn1c(=O)c2sccc2n2c(CCCC(=O)NCCc3ccccc3)nnc12	–	-1.53	6.51 µM [falling, single point]
CCOC(=O)C1C(=O)CC(C)(O)C(C(=O)OCC)C1c1cccs1 (stereo not drawn)	–	8.43	–
CC(C)CCn1c(COc2ccccc2)n[nH]c1=S	1.3 µM [rising, single point]	17.2	0.731 µM [rising, full curve]
COc1cnc(-c2ccccn2)nc1N(C)C	2.31 µM [rising, partial curve, poor fit]	-33.2	–
COc1ccc(NC(=O)Nc2cccnc2)c(OC)c1	–	5.21	–
CCN(CC)C(=O)c1ccc(Cn2cc([N+](=O)[O-])cn2)o1	–	14.9	16.4 µM [rising, single point]
COC(=O)c1sccc1NC(=S)Nc1cccc(F)c1	6.51 µM [falling, single point]	27.2	6.51 µM [falling, single point]
Cc1cc(C)c2cc(C(O)c3nnnn3Cc3ccccc3)c(=O)[nH]c2c1 (stereo not drawn)	–	19.3	1.46 µM [rising, partial curve]
COc1ccc(S(=O)(=O)N2CCOC23CCN(S(=O)(=O)c2cccs2)CC3)cc1	–	–	29.1 µM [falling, single point]
COc1ccc(OC)c(NC(=O)c2cc(-c3c(C)cc(C)cc3O)n[nH]2)c1	–	–	0.231 µM [falling, full curve]
O=C(NCCCc1ccccc1)C1CCN(S(=O)(=O)c2ccc(F)cc2)CC1	–	–	0.517 µM [falling, single point]
CCNC(=O)c1cc2c(=O)n3cccc(C)c3nc2n(CCc2ccccc2)c1=N	–	–	0.13 µM [rising, partial curve, poor fit]
CC1OC(Nc2cccc3ccccc23)C(O)C(O)C1O (stereo not drawn)	6.51 µM [falling, single point]	89.2	29.1 µM [rising, single point]

Just AC50 [2] and cell number change [%], for some of the entries so far:

| SMILES | AC50 [2] | cell number change [%] |
| --- | --- | --- |
| Clc1cc(Cl)cc(C2=NCCC(c3ccccc3)O2)c1 (stereo not drawn) | 16.4 µM [rising, partial curve] | 35.8 |
| NS(=O)(=O)c1ccc(N2C(=O)C3CC=CCC3C2=O)cc1 (stereo not drawn) | 0.13 µM [falling, full curve, poor fit] | -27 |
| O=C(NCc1cn(-c2ccccc2)nc1-c1ccccc1)c1ccc([N+](=O)[O-])cc1 | 20.6 µM [falling, single point] | -28.2 |
| Cc1[nH]n(-c2ccccc2)c(=O)c1/C=N/N(c1ccccc1)c1ccccc1 | 29.1 µM [falling, single point] | -24.3 |

Continuation:

SMILES	AC50 [1]	cell number change [%]	AC50 [2]
CN1C(=O)CC(c2ccccc2)CC1=O	–	23	2.91 µM [rising, full curve]
N/C(=N\OC(=O)CCC1CCCC1)c1ccncc1	4.11 µM [rising, partial curve, poor fit]	-1.84	–
Cn1c(NNC(=O)C2CCCCC2)cc(=O)n(C)c1=O	–	-19.9	–
O=S(=O)(c1cccc(Cl)c1)N1CN(CC2CCCO2)c2nc3ccccc3nc21 (stereo not drawn)	6.51 µM [rising, single point]	–	–
CCc1cc2cc(C)ccc2nc1SCC(=O)N1CCN(C(=O)c2ccco2)CC1	–	-4.45	6.51 µM [rising, single point]
O=C(Nc1cccc(Cl)c1Cl)c1ccccc1OCC(=O)N1CCOCC1	–	5.17	–
CCOc1ccc(-n2c(SCC(=O)Nc3ccc(OC)cc3)nc3sc4c(c3c2=O)CCN(C)C4)cc1	–	13.8	11.6 µM [rising, partial curve]
CCCCN1C(=S)NC[C@@H]1C(C)CC (stereo partly drawn)	–	14.3	–
COc1c2occc2cc2ccc(=O)oc12	1.64 µM [rising, partial curve]	–	0.92 µM [rising, partial curve]
CCOC(=O)c1c(C)[nH]c(C(=O)OCc2ccc(F)cc2)c1C	–	16.4	2.91 µM [rising, full curve]
O=S(=O)(NC1CCCCC1)c1cccs1	–	7.69	–
O=C(Oc1c(Cl)cc(Cl)c2cccnc12)N1CCCCC1	13 µM [rising, partial curve]	248	6.51 µM [rising, single point]
O=C(CSc1ccc(-c2cccnc2)nn1)Nc1ccc(F)cc1F	–	17.3	–
COC(=O)C1CCN(CC(=O)Nc2ccccc2Sc2ccccc2)CC1	–	-11.1	–
O=C(CC12CC3CC(CC(C3)C1)C2)Nc1ccc(C(=O)O)cc1	–	–	29.1 µM [rising, single point]
CCN(CC)S(=O)(=O)c1ccc(OC)c(NC(=O)c2cc(=O)[nH]c3ccccc23)c1	5.8 µM [rising, single point]	–	6.51 µM [rising, single point]
CCOC(=O)c1c(OCCO)nn(-c2ccccc2)c1N	–	40.6	–
CCC(C)(C(=O)NC1CCCCC1)N(Cc1ccco1)C(=O)c1ccc2c(c1)OCO2 (stereo not drawn)	4.61 µM [rising, single point]	–	6.51 µM [rising, single point]
C=C(C)C1CC=C(C)/C(=N/NC(=O)C2CC2c2ccccc2)C1 (stereo not drawn)	0.058 µM [rising, full curve, poor fit]	64.1	29.1 µM [rising, partial curve, poor fit]
Brc1ccc(OCc2nc3ccccc3[nH]2)cc1	–	12	0.411 µM [falling, full curve]
O=C(NC(=S)N1CCOCC1)C12CCC3CC(CC(C3)C1)C2	–	-18.4	29.1 µM [rising, single point]

SMILES	AC50 [1]	cell number change [%]	AC50 [2]
CCCC(=O)N(c1ccc2oc(C)c(C(C)=O)c2c1)S(=O)(=O)c1ccc(C(=O)O)cc1	–	6.31	29.1 µM [rising, single point]
O=C(CCS(=O)(=O)Cc1ccccc1)N1CCc2ccccc2C1	5.17 µM [rising, full curve, poor fit]	30.8	6.51 µM [rising, single point]
CCC(CC)COC(=O)C1=C(C)NC(=O)NC1c1ccc2c(c1)OCO2 (stereo not drawn)	–	-50.4	29.1 µM [falling, single point]
CCC(=O)Nc1cccc(NC(=S)NC(=O)c2cccc(C)c2)c1	–	-10.5	–
N#Cc1c(-c2ccc(Cl)cc2)ccn2nc(CCC(=O)O)nc12	–	–	20.6 µM [rising, partial curve, poor fit]
CCN(C(=O)Nc1cccc(Cl)c1)c1ccccc1	–	-3.86	–
O=C(COC(=O)Cc1ccc(Cl)cc1Cl)Nc1ccc(OC(F)F)cc1	0.00461 µM [falling, full curve, poor fit]	16.7	25.9 µM [rising, single point]
Oc1ccc(N=Cc2ccc(O)c(O)c2)cc1	4.61 µM [falling, full curve]	-35.9	4.11 µM [falling, full curve]
COc1ccc(OC)c(/C=N\NC(=O)c2cc3c(ccc4ccccc43)o2)c1	–	-11.3	–
Cc1cc(C)c2[nH]c(C)c(CN3CCCCCC3)c(=O)c2c1	–	23.3	0.291 µM [falling, partial curve, poor fit]
COc1cccc(C(=O)COC(=O)CCC(=O)NC2CCCCC2)c1	7.31 µM [falling, single point]	-10.7	6.51 µM [falling, partial curve, poor fit]
CC(C)(C)C(=O)Nc1ccc(-c2cc3cc(Cl)ccc3o2)cc1	–	28	2.06 µM [rising, partial curve]
O=C(NC1CCN(Cc2ccccc2)CC1)c1cccc(S(=O)(=O)Nc2cc(C(F)(F)F)ccc2Cl)c1	–	-6.79	0.164 µM [falling, full curve, poor fit]
CCOC(=O)c1cnn(-c2ccccc2)c1NC(=O)c1ccccc1	–	24.9	29.1 µM [rising, partial curve, poor fit]
CN(C(=O)c1ccc(NC(=O)Cc2cccc(NC(=O)C3CCCN(C(=O)CCc4ccccc4)C3)c2)cc1)C1CCCC1 (stereo not drawn)	1.3 µM [falling, partial curve, poor fit]	-38.9	–
COc1ccccc1N(C(=O)CNS(=O)(=O)c1ccccc1)C(C(=O)NCc1ccco1)C(C)C (stereo not drawn)	–	-14.1	3.26 µM [rising, single point]
CCOC(=O)c1ccc(/[N+]([O-])=C/c2ccccc2)cc1	0.00517 µM [rising, full curve]	20	25.9 µM [rising, single point]
Oc1[nH]c2ccccc2c1C1=NCCCCC1	–	21.7	0.116 µM [rising, full curve, poor fit]
CCN(CC)CCN1C(=O)C(=O)/C(=C(/O)c2ccc(S(=O)(=O)N3CCOCC3)cc2)C1c1ccc(C(C)(C)C)cc1 (stereo not drawn)	–	2.94	0.206 µM [rising, single point]
